Laboratory results as given in patent US11191761B2, “SOMCL-9112 solid dispersion and preparation method thereof and SOMCL-9112 solid preparation containing SOMCL-9112 solid dispersion” (SHANGHAI INSTITUTE OF MATERIA MEDICA, CHINESE ACADEMY OF …, priority 2015, dated 2021).

Assay: Permeability test using Caco-2 cell model
Conditions: human
Method: Permeability Test: The permeability of SOMCL-9112 was evaluated using Caco-2 cell model.

Papp B→A: 1.16 ± 0.17 ×10⁻⁶ cm/s
Compound: CC(C)NCC(O)COc1ccc(CC(N)=O)cc1 (stereo not shown) [Atenolol, reference compound]
